Out of some 320,000 compounds screened, about 2,100 (0.66%) were called active. The shares of active, inactive and inconclusive entries below differ from those in the screen. Calls follow the shape of the dose curve; as a rule, active = well fitted inhibition curve with a large enough effect in the signal ratio, with a control signal flat (not every such curve was filed as active); inconclusive = small, poorly fitted or top-dose-only effect, or effect the other way, or a change in a side signal; inactive = flat fitted curve, though single readings scatter; the % refers to the signal ratio. Potencies beside an inconclusive call are fits to weak or partial responses and may not hold up.
Experiment: qHTS Assay for Lipid Storage Modulators in Drosophila S3 Cells
Conditions: BODIPY lipid droplet fluorescence, 18-24 h, cells fed with added oleic acid; lipid storage change, negative = inhibition: at 46.1 µM (top of the series) unless noted
Summary of the method: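 Drosophila S3 cells got compounds at several concentrations plus oleic acid (400 uM solution). Laser-scanning cytometry with 488 nm excitation read lipid droplets at 500-530 nm and cells at 575-640 nm. Percent activity was relative to 20 uM Triacsin C.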
% is scaled to controls: 0 for no effect and ±100 for the full control effect; potency is read from the fitted curve at half-maximal effect.

Q: Which lipid storage change, negative = inhibition does the source give for CCCC(=O)OC/C(O)=C(\C#N)c1nc2ccccc2[nH]1 here?
A: The lipid storage change, negative = inhibition was inconclusive: 11.5%.

Q: With CC(C)c1ccc(S(=O)(=O)N2CCN(CC(=O)Nc3ccc(Cl)cc3F)CC2)cc1 as the compound, how does the Potency read?
A: The Potency was inconclusive: 6.51 µM [falling, single point].

Q: Which Potency does the source give for FC(F)(F)c1cccc(/C=N/NC(=S)NC2CCCCC2)c1 here?
A: Its Potency is inconclusive: 6.51 µM [rising, single point].

Q: Which lipid storage change, negative = inhibition does the source give for CCN(CC)S(=O)(=O)c1cccc(C(=O)OCC(=O)NCc2ccccc2OC)c1 here?
A: The lipid storage change, negative = inhibition was inconclusive: 35.9%.

Q: Which lipid storage change, negative = inhibition does the source give for Cc1cccc(N2CCN(C(=O)Cn3c(=O)[nH]c4ccsc4c3=O)CC2C)c1 (stereo not given) here?
A: Its lipid storage change, negative = inhibition is inconclusive: -2.38%.

Q: For CCCCNC(=S)NNC(=O)c1cc(-c2cccnc2)nc2ccccc12, which lipid storage change, negative = inhibition is on record?
A: Its lipid storage change, negative = inhibition is inconclusive: -3.77%.

Q: With CCOc1nc(SC(C(C)=O)C(=O)Nc2ccccc2)nc(N(C)C)n1 (stereo not given) as the compound, how does the lipid storage change, negative = inhibition read?
A: The lipid storage change, negative = inhibition was “inactive”.

Q: With CCOC(=O)c1cccc(NC(=O)CCOc2ccccc2)c1 as the compound, how does the Potency read?
A: The Potency was inconclusive: 11.6 µM [falling, partial curve].

Q: Which lipid storage change, negative = inhibition does the source give for Cc1ccc(S(=O)(=O)N2CCOCC2)cc1NC(=O)COC(=O)c1cccnc1Cl here?
A: Its lipid storage change, negative = inhibition is inconclusive: 15%.

Q: For Cc1ccc(S(=O)(=O)N2CCC(C)CC2)cc1C(=O)NCCN1CCOCC1, which Potency is on record?
A: Its Potency is inconclusive: 1.64 µM [falling, single point].

Q: With Cc1ccc(CNC(=O)Cc2ccc(-c3ccccc3)cc2)cc1 as the compound, how does the lipid storage change, negative = inhibition read?
A: The lipid storage change, negative = inhibition was inconclusive: -17%.

Q: Which lipid storage change, negative = inhibition does the source give for COc1ccc(NC(=O)c2ccccc2SC)c(OC)c1 here?
A: Its lipid storage change, negative = inhibition is inconclusive: -44% [cytotoxic] [at 0.369 µM].

Q: With N#CC(C(=O)C12CC3CC(CC(C3)C1)C2)c1nc2ccccc2[nH]1 (stereo not given) as the compound, how does the lipid storage change, negative = inhibition read?
A: The lipid storage change, negative = inhibition was inconclusive: 22.6%.

Q: With Cc1c(-c2ccc(Br)cc2)[n+](=O)c2c(n1[O-])CCCC2 as the compound, how does the Potency read?
A: Its Potency is inconclusive: 0.0651 µM [activator, full curve, poor fit].

Q: Which lipid storage change, negative = inhibition does the source give for Cc1cc(C(=O)NCC2CCCO2)n(-c2ccccc2)n1 (stereo not given) here?
A: The lipid storage change, negative = inhibition was inconclusive: -17.8% [at 9.22 µM].

Q: For CCN1C(=O)[C@H]2[C@@H](c3ccc(C)cc3)N3C(=O)N(c4cccc(Br)c4)C(=O)[C@@]3(Cc3ccccc3)[C@H]2C1=O, which lipid storage change, negative = inhibition is on record?
A: The lipid storage change, negative = inhibition was inconclusive: 14.8%.

Q: For CC(C)CCOc1cccc(OCC(=O)Nc2ccncc2)c1, which Potency is on record?
A: The Potency was inconclusive: 3.26 µM [falling, partial curve].

Q: With Cc1ccc(OCCC(=O)OCC(=O)Nc2ccc(C)cc2Cl)cc1 as the compound, how does the lipid storage change, negative = inhibition read?
A: Its lipid storage change, negative = inhibition is inconclusive: 1.33%.

Q: Which lipid storage change, negative = inhibition does the source give for CCN(CC(=O)Nc1ccc(NC(C)=O)cc1)C(=O)c1ccccc1SCC(=O)N1CCCC1 here?
A: Its lipid storage change, negative = inhibition is inconclusive: -16%.

Q: Which lipid storage change, negative = inhibition does the source give for CCCCn1c(=O)c(CCC(=O)OCC(=O)NC(C)c2ccccc2)nc2ccccc21 (stereo not given) here?
A: The lipid storage change, negative = inhibition was inconclusive: 95%.
